Laboratory results: PubChem BioAssay AID686943 (Drosophila RNAi Screening Center, 2013)
In all, the deposit lists about 23,000 reagents; this is an unselected part of those that have a named target and a result. 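Extra replicates exist only for a retested subset of genes; insulin dose and duration not given; both raised and lowered dpERK matter.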 Not stated in the record: the amount of reagent, the time to read-out.

- Assay: 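Knockdowns that increase or decrease active ERK after insulin receptor stimulation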 (primary screen)
- Cell system: Drosophila S2R+ haemocyte-like cells expressing YFP-tagged ERK (Rolled)
- Reagents: long dsRNA against Drosophila genes
- Treatment: insulin stimulation versus unstimulated cells; dose and duration not given
- Measured: 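Antibody staining for doubly phosphorylated ERK divided by ERK-YFP signal, as plate z-scores, in insulin-treated and untreated cells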
- Direction: replicate 1, z-score of dpERK with insulin and replicate 2, z-score of dpERK with insulin: higher = more active ERK per ERK-YFP after insulin; replicate 1, z-score of dpERK under basal conditions: higher = more basal active ERK per ERK-YFP; replicate 1, z-score of ERK-YFP with insulin: higher = more YFP-tagged ERK signal

gene,DRSC id,"replicate 1, z-score of dpERK with insulin","replicate 2, z-score of dpERK with insulin","replicate 1, z-score of dpERK under basal conditions","replicate 1, z-score of ERK-YFP with insulin"
CG32198,DRSC09553,-0.45,-0.57,0.22,0.92
CG11409,DRSC18579,-0.02,0.98,-0.35,-2.06
CG15036,DRSC17968,-2,-2.82,-0.37,0.37
Pebp1,DRSC15354,-0.3,0,-0.7,-0.08
Grip84,DRSC20248,-1.13,0.73,2.22,-0.18
CG4678,DRSC19911,0.59,-0.38,-1.17,0.16
CG4678,DRSC19912,0.18,0.32,-0.13,0.3
CG15210,DRSC19656,0.18,0.06,0.06,-0.52
PGRP-LB,DRSC14926,0.28,-0.25,-0.42,-1.94
Sin1,DRSC05965,0.75,0.31,0.25,-0.38
Fam92,DRSC02952,-0.02,-0.45,-0.54,-0.33
CG32182,DRSC09508,0.89,0.21,-0.12,0.15
CG7627,DRSC03065,0.2,0.14,-0.59,0.81
CR31032,DRSC22457,-0.3,-0.08,-0.16,0.32
CG1231,DRSC08267,1.94,3.28,1.86,-4.93
CG33235,DRSC19641,0.39,0.83,0.21,0.01
CSN3,DRSC11859,-1.07,0.19,0.56,-0.31
Esyt2,DRSC16082,-0.24,-0.39,0.02,0.41
Tret1-2,DRSC07117,-0.32,0.17,-0.46,0.13
Pal2,DRSC04507,1.24,0.2,-0.21,0.4
CG14262,DRSC14757,-0.42,-0.95,0.36,0.74
dachs,DRSC01026,0.95,0.9,0.07,0.13
dachs,DRSC02072,-0.28,-0.26,-1.02,-0.02
dachs,DRSC02191,0.29,0.42,1.36,-0.26
CG9582,DRSC03267,0.02,1.04,-0.56,-0.46
CG33630,DRSC14546,-0.4,0.15,0.81,0.05
CG1958,DRSC18196,-0.4,0.09,0.91,-0.71
CG32603,DRSC19409,-0.17,-0.03,-0.89,-0.3
CG32603,DRSC21586,0.14,0.54,0.59,-0.5
par-6,DRSC20359,-0.54,0.51,0.14,0.08
CkIIbeta2,DRSC07361,0.43,0.1,-0.68,-0.26
PheRS-m,DRSC05915,0.04,-0.01,0.11,0
Spn42De,DRSC05011,-0.42,0.3,-0.44,-0.1
PGAP5,DRSC03089,1.24,0.25,2.09,-0.42
Lac,DRSC07452,0.19,-0.2,-0.36,0.07
I-t,DRSC16713,-0.4,0.05,0.17,-0.32
Vps50,DRSC06910,-0.2,0.18,0.21,0.18
neb,DRSC03577,-1.94,-0.38,0.07,0.93
CG30099,DRSC07039,0.01,-0.19,0.87,0.01

Reformatted: entries from further up.
| gene | DRSC id | replicate 1, z-score of dpERK with insulin | replicate 2, z-score of dpERK with insulin | replicate 1, z-score of dpERK under basal conditions | replicate 1, z-score of ERK-YFP with insulin |
| --- | --- | --- | --- | --- | --- |
| CG4678 | DRSC19911 | 0.59 | -0.38 | -1.17 | 0.16 |
| CG4678 | DRSC19912 | 0.18 | 0.32 | -0.13 | 0.3 |
| CG15210 | DRSC19656 | 0.18 | 0.06 | 0.06 | -0.52 |
| PGRP-LB | DRSC14926 | 0.28 | -0.25 | -0.42 | -1.94 |
| Sin1 | DRSC05965 | 0.75 | 0.31 | 0.25 | -0.38 |
